Source: patent publication US8084644B2, “Iminopropene compound and use thereof” (Sumitomo Chemical Company, Limited, priority 2005, dated 2011)
Some of these results come from one statement about several compounds together. Some ranges recur; such a range may be that of the whole group of compounds.

Tests used:
Type in all cases: in vivo
[1] = system: Bemisia argentifolii; assay: Test Example 10: spray test on silver leaf white fly on cabbage; conditions: after seven days
[2] = system: Blattalla germanica; assay: Test Example 6: filter paper test on German cockroach; conditions: 500 ppm, male adult German cockroach, after 6 days
[3] = system: Spodoptela litura; assay: Test Example 1: artificial diet test on tobacco cutworm larvae; conditions: 500 ppm, fourth-instar larvae, after 6 days
[4] = system: Culex pipiens pallens; assay: Test Example 7: water treatment test on common mosquito larvae; conditions: concentration of active ingredient 3.5 ppm in water; last-instar larvae; after one day
[5] = system: Adoxophyes orana; assay: Test Example 2: artificial diet test on summer fruit tortrix larvae; conditions: 500 ppm, first-instar larvae, after 7 days
[6] = system: Musca domestica; assay: Test Example 5: filter paper test on houseflies; conditions: 500 ppm, female adult houseflies, after 24 hours
[7] = system: Plutella xylostella; assay: Test Example 9: cabbage test on diamondback, second-instar; conditions: 500 ppm, 25° C., after five days
[8] = system: Aphis gossypii; assay: Test Example 3: spray test on cotton aphids on cucumber; conditions: 500 ppm, first-instar larvae on cucumber, after 6 days

Compound | index number (mortality) ([1]; 50 ppm) | index number (mortality) [2] | index number (mortality) ([1]; 200 ppm) | index number (mortality) [3] | index number (mortality) [4] | index number (mortality) [5] | index number (mortality) [6] | index number (mortality) [7] | index number (surviving rate based on untreated check) [8]
1-Phenethyl 3-(4-chlorophenylthio)-N-(4-methylphenyl)thioacrylimidate [(398)] | 3 (mortality 90 to 99%) | 4 (mortality 100%) | – | – | – | – | – | – | –
1-Phenethyl 3-(4-fluorophenylthio)-N-(4-methylphenyl)thioacrylimidate [(394)] | 3 (mortality 90 to 99%) | 4 (mortality 100%) | – | – | – | – | – | – | –
Clc1cccc(N=C(C=CSc2ccccc2)Sc2ccccc2)c1 [(23), Phenyl N-(3-chlorophenyl)-3-(phenylthio)thioacrylimidate] | – | – | 3 (mortality 90 to 99%) | 3 (mortality 80 to 99%) | 4 (mortality 91 to 100%) | 3 (mortality 80 to 99%) | 3 (mortality 70 to 99%) | 3 (mortality 80 to 99%) | 3 (surviving rate 1 to 10%)
C(=CC(=Nc1ccccc1)Sc1ccccc1)Sc1ccccc1 [(24), Phenyl N-phenyl-3-(phenylthio)thioacrylimidate] | 3 (mortality 90 to 99%) | 4 (mortality 100%) | – | 3 (mortality 80 to 99%) | 4 (mortality 91 to 100%) | 3 (mortality 80 to 99%) | 3 (mortality 70 to 99%) | – | 3 (surviving rate 1 to 10%)
COc1ccc(SC(C=CSc2ccccc2)=Nc2ccccc2)cc1 [(26), 4-Methoxyphenyl N-phenyl-3-(phenylthio)thioacrylimidate] | – | 4 (mortality 100%) | 3 (mortality 90 to 99%) | 3 (mortality 80 to 99%) | 4 (mortality 91 to 100%) | 3 (mortality 80 to 99%) | 3 (mortality 70 to 99%) | 3 (mortality 80 to 99%) | 3 (surviving rate 1 to 10%)
Clc1cccc(N=C(C=CSc2ccccc2)Oc2ccccc2)c1 [(40), Phenyl N-(3-chlorophenyl)-3-(phenylthio)acrylimidate] | – | 4 (mortality 100%) | 3 (mortality 90 to 99%) | 3 (mortality 80 to 99%) | 4 (mortality 91 to 100%) | 3 (mortality 80 to 99%) | 3 (mortality 70 to 99%) | 3 (mortality 80 to 99%) | –
CCc1ccc(N=C(C=CSc2ccccc2)Oc2ccccc2)cc1 [(63), Phenyl N-(4-ethylphenyl)-3-(phenylthio)acrylimidate] | – | – | 3 (mortality 90 to 99%) | 3 (mortality 80 to 99%) | 4 (mortality 91 to 100%) | 3 (mortality 80 to 99%) | 3 (mortality 70 to 99%) | 3 (mortality 80 to 99%) | 3 (surviving rate 1 to 10%)
Cc1ccc(OC(C=CSc2ccccc2)=Nc2ccc(C(C)C)cc2)cc1 [(88), 4-Methylphenyl N-[4-(1-methylethyl)phenyl]-3-(phenylthio)acrylimidate] | – | – | 3 (mortality 90 to 99%) | 3 (mortality 80 to 99%) | 4 (mortality 91 to 100%) | 3 (mortality 80 to 99%) | – | 3 (mortality 80 to 99%) | 3 (surviving rate 1 to 10%)
Cc1cccc(OC(C=CSc2ccccc2)=Nc2ccc(C(C)C)cc2)c1C [(91), 2,3-Dimethylphenyl N-[4-(1-methylethyl)phenyl]-3-(phenylthio)acrylimidate] | – | – | 3 (mortality 90 to 99%) | 3 (mortality 80 to 99%) | – | 3 (mortality 80 to 99%) | 3 (mortality 70 to 99%) | 3 (mortality 80 to 99%) | 3 (surviving rate 1 to 10%)
Cc1ccccc1SC=CC(=Nc1ccccc1)Oc1ccccc1 [(105), Phenyl 3-(2-methylphenylthio)-N-phenylacrylimidate] | – | – | 3 (mortality 90 to 99%) | 3 (mortality 80 to 99%) | 4 (mortality 91 to 100%) | 3 (mortality 80 to 99%) | 3 (mortality 70 to 99%) | 3 (mortality 80 to 99%) | –
FC(F)(F)c1ccc(SC=CC(=Nc2ccccc2)Oc2ccccc2)cc1 [(123), Phenyl N-phenyl-3-(4-trifluoromethylphenylthio)acrylimidate] | – | 4 (mortality 100%) | 3 (mortality 90 to 99%) | 3 (mortality 80 to 99%) | 4 (mortality 91 to 100%) | 3 (mortality 80 to 99%) | – | 3 (mortality 80 to 99%) | –
CC(C)c1ccc(N=C(C=COc2ccccc2)Oc2cccc(Cl)c2Cl)cc1 [(200), 2,3-Dichlorophenyl N-[4-(1-methylethyl)phenyl]-3-phenoxyacrylimidate] | – | 4 (mortality 100%) | 3 (mortality 90 to 99%) | 3 (mortality 80 to 99%) | – | – | – | – | –
Clc1ccc(SC=CC(=Nc2ccccc2)SCc2ccccc2)cc1 [(219), Benzyl 3-(4-chlorophenylthio)-N-phenyl-thioacrylimidate] | – | 4 (mortality 100%) | 3 (mortality 90 to 99%) | – | – | – | – | – | –
Cc1ccc(SC=CC(=Nc2ccccc2)SCc2ccccc2)cc1 [(228), Benzyl 3-(4-methylphenylthio)-N-phenyl-thioacrylimidate] | – | 4 (mortality 100%) | 3 (mortality 90 to 99%) | – | – | – | – | – | –
Cc1ccc(N=C(C=CSc2ccccc2)SCc2ccccc2)cc1 [(260), Benzyl N-(4-methylphenyl)-3-(phenylthio)thioacrylimidate] | – | 4 (mortality 100%) | 3 (mortality 90 to 99%) | – | – | – | – | – | –
Cc1cccc(OC(C=COc2ccc(C#N)cc2)=Nc2ccc(C)c(C)c2)c1 [(305), 3-Methylphenyl N-(3,4-dimethylphenyl)-3-(4-cyanophenoxy)acrylimidate] | – | – | 3 (mortality 90 to 99%) | – | – | – | 3 (mortality 70 to 99%) | – | –
Cc1ccc(SC=CC(=Nc2ccc(C)c(C)c2)Oc2cccc(C)c2)cc1 [(307), 3-Methylphenyl N-(3,4-dimethylphenyl)-3-(4-methylthiophenoxy)acrylimidate] | – | – | 3 (mortality 90 to 99%) | – | – | – | 3 (mortality 70 to 99%) | 3 (mortality 80 to 99%) | 3 (surviving rate 1 to 10%)
Cc1ccc(N=C(C=CSc2ccccc2)SCC=C(Cl)Cl)cc1 [(389), 3,3-Dichloro-2-propenyl N-(4-methylphenyl)-3-(phenylthio)thioacrylimidate] | – | 4 (mortality 100%) | 3 (mortality 90 to 99%) | – | – | – | – | – | –
